# Source: patent publication US20230173029A1, “TREATMENT OF CARDIAC REMODELLING” (UNIVERSITETET I OSLO, priority 2020, published 2023)
# Test system: Dahl salt-sensitive (Dahl/SS) male rats
# Assay: Autopsy: body weight, heart weight and heart weight to body weight ratio in hypertensive Dahl/SS rats
# Assay type: in vivo, rat
# Settings: HT Dahl/SS rats on high salt diet, at 6 weeks, mean ± SEM
# Description: A total of 29 adult Dahl salt-sensitive (Dahl/SS) male rats with an initial weight of 150 to 200 g were included in the study. Rats were purchased from Charles River Laboratories (USA) and housed in a room with a 12/12-hour light cycle, a temperature of 21° C., and a humidity of 55%. Rats were maintained on a normal salt diet up to seven weeks of age. Twenty-two Dahl/SS were then randomly switched to a high salt diet for 6 weeks to induce hypertension, whilst 7 rats were kept normotensive (NT) on normal salt diet. Drinking water and food was provided ad libitum.
# After 2 weeks of high salt diet, 15 hypertensive (HT) rats were started on treatment with proANP31-67. Rats treated with proANP31-67 received one of two dosages: 50 ng/kg/day (n=8) or 100 ng/kg/day (n=7). A total of 14 rats received only vehicle: control rats on a normal salt diet (n=7); and HT rats on a high salt diet (n=7). Rats were randomly assigned to the 3 groups (i.e. control normal salt; high salt untreated; high salt plus treatment).
# Drug or vehicle was delivered via Alzet osmotic mini-pumps (Model 2004; mean pumping rate […], mean fill volume […]) implanted subcutaneously (as instructed by the manufacturer) for 28 days. Animals were treated with buprenorphine (0.05 mg/kg s.c.) as analgesic 30 minutes before and up to 1 day following implantation of pumps. […]
substance,measurement,setting,value
"proANP31-67: Human proANP31-67, linear peptide fragment of proANP consisting of SEQ ID NO: 1; also known as vessel dilator, VSDL (EVVPPQVLSEPNEEAGAALSPLPEVPPWTGEVSPAQR; listed as Homo sapiens)",BW (body weight),25 ng/kg/day s.c.,354.0 ± 8.3 g
same,BW (body weight),50 or 100 ng/kg/day s.c. (pooled) for 28 days,348.6 ± 4.4 g
